In patent US20130089599A1, “NANO-ENCAPSULATED THERAPEUTICS FOR CONTROLLED TREATMENT OF INFECTION AND OTHER DISEASES” (The United States of America as Represented by the …, priority 2011, published 2013):
For at least one compound, name, drawing or mass did not settle the structure.

Tested on: A. baumannii
Assay: effect of storage time on antibiotic functionality
Type: physicochemical
Conditions: 1 mg/ml solution stored at 37° C., day 0 to day 35
Method: The effect of storage time on antibiotic functionality of tobramycin and rifampicin against A. baumannii were also tested. Tobramycin and rifampicin solutions (1 mg/ml in water and DMSO, respectively) were kept at room temperature (24° C.) or 37° C. for up to 35 days, and the antimicrobial activities of the antibiotics at different time points were tested by applying the antibiotics to A. Baumannii. MIC50 were determined and compared. […] P values for tobramycin and rifampicin (from day 0 to day 35) are 0.593 and 0.442 respectively (FIG. 3)

For `CO[C@H]1/C=C/O[C@@]2(C)Oc3c(C)c(O)c4c(O)c(c(/C=N/N5CCN(C)CC5)c(O)c4c3C2=O)NC(=O)/C(C)=C\C=C\[C@H](C)[C@H](O)[C@@H](C)[C@@H](O)[C@@H](C)[C@H](OC(C)=O)[C@@H]1C` [Rifampicin], the “change of MIC50 on storage (antibiotic functionality)” value was “no significantly change”.
